## Screening data, single-dose tests

Sequences of proteins named here, by UniProt entry; tags and fusion partners are left off. Residues count along the entry.
UniProt Q8IDJ8, 1-583: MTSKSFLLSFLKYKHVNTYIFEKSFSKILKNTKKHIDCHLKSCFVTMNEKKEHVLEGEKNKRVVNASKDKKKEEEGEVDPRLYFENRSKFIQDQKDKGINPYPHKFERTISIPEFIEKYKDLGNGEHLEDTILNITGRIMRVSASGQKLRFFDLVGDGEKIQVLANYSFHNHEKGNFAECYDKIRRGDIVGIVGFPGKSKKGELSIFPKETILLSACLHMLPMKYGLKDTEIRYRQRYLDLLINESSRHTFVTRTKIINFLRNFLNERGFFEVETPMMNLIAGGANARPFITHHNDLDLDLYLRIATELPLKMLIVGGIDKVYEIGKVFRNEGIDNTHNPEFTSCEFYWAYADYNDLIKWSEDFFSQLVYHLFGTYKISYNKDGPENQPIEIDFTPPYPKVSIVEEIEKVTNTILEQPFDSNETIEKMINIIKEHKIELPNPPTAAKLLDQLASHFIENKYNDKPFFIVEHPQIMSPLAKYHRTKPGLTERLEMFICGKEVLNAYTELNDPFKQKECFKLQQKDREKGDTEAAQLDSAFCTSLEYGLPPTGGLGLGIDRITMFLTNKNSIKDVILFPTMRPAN
UniProt Q4DA54, 1-478: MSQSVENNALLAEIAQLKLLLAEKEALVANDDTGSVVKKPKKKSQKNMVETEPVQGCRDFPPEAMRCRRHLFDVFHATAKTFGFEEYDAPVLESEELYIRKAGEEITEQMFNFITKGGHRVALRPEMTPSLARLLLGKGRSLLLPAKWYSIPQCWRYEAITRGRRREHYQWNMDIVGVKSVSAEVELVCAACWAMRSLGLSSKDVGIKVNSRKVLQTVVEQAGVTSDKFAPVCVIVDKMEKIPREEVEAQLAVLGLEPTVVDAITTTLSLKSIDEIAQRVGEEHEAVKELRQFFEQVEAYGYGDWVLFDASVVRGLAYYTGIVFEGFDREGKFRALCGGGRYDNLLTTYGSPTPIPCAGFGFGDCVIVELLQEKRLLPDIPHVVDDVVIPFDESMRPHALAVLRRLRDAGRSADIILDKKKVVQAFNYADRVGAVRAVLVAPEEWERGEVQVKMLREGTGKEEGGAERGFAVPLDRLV

The values are deposited in ChEMBL (CHEMBL3988442, “University of Dundee, Small-Polar-MMV Screening Library” (2021)).

A: 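Cell assay of Leishmania donovani living inside macrophages; the read-out is not stated. Concentration: 30 µM. Higher reads as stronger inhibition (inferred: compounds with an IC50 in retests scored well above the rest). Size under these conditions: about 69,000 compounds, about 1,000 of them at 50% or above in at least one test.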
B: 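Whole-parasite assay of Trypanosoma brucei over 72 hours; the read-out is not stated. Tested at 30 µM. Direction is inferred from retests: higher values go with stronger inhibition. Values scatter widely below zero; nearly all retest evidence comes from the higher of the two concentrations used. About 64,000 compounds were tested under these conditions; 1.5% (about 940) showed 50% or more at least once.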
C: 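Assay of Toxoplasma gondii numbers, read through their beta-galactosidase reporter with a colour substrate. Tested at 10 µM. Higher reads as fewer parasites (inferred from which compounds were picked for retests). Of about 67,000 compounds tested this way, about 260 (0.38%) reached 50% or more in at least one test.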
D: 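Lysine-tRNA ligase, Plasmodium falciparum 3D7 (UniProt Q8IDJ8). Enzyme assay of the cytosolic lysyl-tRNA synthetase in 384-well plates, read by luminescence. Compounds at 30 µM. Direction is inferred from only a few compounds that gave an IC50; most scored high, so higher reads as stronger inhibition. About 69,000 compounds were tested under these conditions; 0.071% (about 49) showed 50% or more at least once.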
E: 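Histidine-tRNA ligase, Trypanosoma cruzi CL Brener (UniProt Q4DA54). Enzyme assay of histidyl-tRNA synthetase; the read-out is not stated. Concentration: 30 µM. Higher reads as stronger inhibition (inferred: compounds with an IC50 in retests scored well above the rest). Size under these conditions: about 69,000 compounds, about 31 of them at 50% or above in at least one test.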

Each number is a percent effect as filed. The record does not define 0% and 100%; most values in the screen are far below 50% and negative numbers occur (in some assays of this library far below -100). This is an unselected part of the compounds tested. Two or more numbers in one place are separate tests of the same structure; such repeats can differ widely. A dash means the value is not listed here; it may have been measured.

| # | SMILES | A | B | C | D | E |
|---|---|---|---|---|---|---|
| 1 | `CS(=O)(=O)N1CCCCC12CCCN(Cc1nccs1)C2` (configuration not stated) | - | - | - | 2.283% | 0% |
| 2 | `CCC(CC)CN(C)Cc1nc(-c2ccccc2NS(C)(=O)=O)oc1C` | 18.24% | -17.21% | 3.138% | 3.483% | 1.299% |
| 3 | `CNc1nc2ncc(Cl)cc2cc1C#N` | 19.86% | - | 20.12% | 6.773% | 7.292% |
| 4 | `O=C(O)C(F)(F)F.O=C(O)C(F)(F)F.O=C(c1cccnc1)N1CCn2cc(CN3CCCC3)nc2C1` | -10.36% | -57.28% | -12.21% | - | - |
| 5 | `C1CCC(CNC2CCSCC2)(N2CCOCC2)CC1` | 25.1% | -32.75% | 10.45% | 2.954% | -2.941% |
| 6 | `CN(CC1COc2ccccc2O1)C(=O)NCCCn1cncn1` (configuration not stated) | 20.47% | 0.9854% | -18.63% | 0.2789% | 1.901% |
| 7 | `Cc1noc(C2CCN(C(C)c3nc(C(C)(C)C)no3)CC2)n1` (configuration not stated) | 22.49% | -12.19% | 2.596% | 2.515% | 3.922% |
| 8 | `Fc1cccc(CN2CCOCC3(CCN(C4CCOCC4)C3)C2)c1` (configuration not stated) | - | - | - | 6.146% | 9.091% |
| 9 | `O=C(NCC1CCC1)c1ccc(-n2ccnc2)nn1` | 38.71% | - | 8.223% | 6.932% | 2.632% |
| 10 | `Cc1cnn(C2CCCN(C(=O)c3c(C)oc(C)c3C)C2)c1` (configuration not stated) | 21.51% | -40.42% | -3.138% | -1.651% | 7.792% |
| 11 | `c1ccc(CN2CCC3(CC2)Nc2ccccc2CO3)cc1` | -9.124% | 1.757% | 12.11% | 1.343% | 8% |
| 12 | `[H][C@@]12CCN(C(=O)NC(C)C)[C@@]1([H])CC(=O)N2Cc1cccnc1` | 22.94% | 13.94% | 6.916% | - | - |
| 13 | `CCc1ccc(C(C)NC(=O)CCc2nc(-c3nnc[nH]3)no2)cc1` (configuration not stated) | -1.386% | -4.18% | -2.294% | 4.699% | 18.45% |
| 14 | `O=C(CCc1ccco1)N1CCCN(Cc2cscn2)CC1` | 2.955% | -9.538% | -15.26% | -1.529% | 9.456% |
| 15 | `COc1ccccc1OCC(=O)NS(=O)(=O)c1ccc(F)cc1F` | -20.52% | -19.99% | -2.908% | 5.294% | 3.941% |
| 16 | `Cc1nccn1CCC1CCCCN1Cc1ccc2c(c1)OCCO2` (configuration not stated) | 2.567% | 12.03% | -0.717% | 2.803% | 1.117% |
| 17 | `O=S1(=O)CCC(NCCn2cncc2-c2ccc3c(c2)CCCO3)C1` (configuration not stated) | - | - | - | 1.845% | 6.923% |
| 18 | `CC(C)CN1C(=O)CC[C@]12CC[C@@H](NC(=O)NCc1cccnc1)CC2.O=C(O)C(F)(F)F` | 40.26% | -81.73% | 0.06947% | - | - |
| 19 | `CCn1cc(C(=O)N2CCCC(c3[nH]ncc3S(C)(=O)=O)C2)cn1` (configuration not stated) | 23.84% | 40.01% | -12.74% | 8.54% | 4.301% |
| 20 | `CC(C)C(=O)NC(Cc1cc(N(C)C)nc(C2CC2)n1)c1ccccc1` (configuration not stated) | 3.553% | 30.74% | -18.75% | 1.114% | 2.571% |
| 21 | `O=C(CCNS(=O)(=O)c1ccccc1)NCc1ccoc1` | 29.92% | 30.85% | 0.5507% | 1.446% | 3.734% |
| 22 | `COC(=O)N1CCCCC1C(=O)N1CCCN(c2ccnc(C)c2)CC1` (configuration not stated) | 21.52% | -17.03% | 3.172% | 4.683% | 5.952% |
| 23 | `CCOC(=O)N1CCC2(CCCN(C3CCOCC3)C2=O)C1` (configuration not stated) | 26.09% | -48.05% | -0.09091% | -22.61% | 8.04% |
| 24 | `CC(=O)N1CCCC2(CN(Cc3ccncc3)CCO2)C1` (configuration not stated) | 17.84% | 4.039% | 21.86% | 3.153% | 4.902% |
| 25 | `Cc1nc(Nc2ccc(Cl)cn2)sc1C(=O)NC(C)C` | -27.46% | -30.35% | 6.186% | -1.902% | -7.955% |
| 26 | `COc1ccc(OCCNCCn2cccn2)cc1` | -7.443% | -10.03% | -1.631% | -0.0242% | 5.639% |
| 27 | `COc1ccc(-c2n[nH]cc2CN(C)Cc2ccoc2)c(F)c1` | 2.667% | 0.1129% | 20.01% | 4.188% | 2.128% |
| 28 | `CC(Oc1ccc(C(=O)NCCNS(C)(=O)=O)cn1)c1ccccc1` (configuration not stated) | 0.3941% | -21.79% | 1.768% | 5.388% | 6.897% |
| 29 | `CCCS(=O)(=O)NCC(O)c1c(Cl)cccc1Cl` (configuration not stated) | 7.191% | -0.3498% | 11.13% | 3.935% | 9.845% |
| 30 | `Cc1nn(COc2cccc(F)c2)c(C)c1NC(=O)C1CC1` | 28.13% | -49.16% | -18.86% | 3.131% | 4.911% |
| 31 | `CC(C(=O)NCc1ccc(N2CCNC(=O)C2)cc1)n1cncn1` (configuration not stated) | 1.534% | 23.11% | 9.423% | 10.12% | 4.58% |
| 32 | `CCc1n[nH]c(C2CN(Cc3ncc(CC)o3)CCO2)n1` (configuration not stated) | -36.36% | -27.91% | -2.594% | 0.9453% | 14.29% |
| 33 | `[H][C@@]12CCN(C(=O)c3cccn3C)C[C@@]1([H])O[C@H](c1nc(C)cs1)C2` | 0% & -7.36% | -34.85% | 3.16% | - | - |
| 34 | `C[C@@H]1C(=O)NC[C@H]2CN(Cc3ccc4c(c3)OCO4)C[C@H]21` | - | - | - | -3.149% | 4.327% |
| 35 | `O=C(O)C(F)(F)F.O=C(c1ccncc1F)N1CCc2onc(COc3cccnc3)c2C1` | 18.59% | -450.9% | -21.98% | - | - |
| 36 | `NCc1cnn(-c2ccccc2C(=O)NCc2ccncc2)c1` | 33.93% | 18.92% | 2.114% | -2.434% | -0.5405% |

Once more, the final 3:

{"smiles": "C[C@@H]1C(=O)NC[C@H]2CN(Cc3ccc4c(c3)OCO4)C[C@H]21", "D": -3.149, "E": 4.327}
{"smiles": "O=C(O)C(F)(F)F.O=C(c1ccncc1F)N1CCc2onc(COc3cccnc3)c2C1", "A": 18.59, "B": -450.9, "C": -21.98}
{"smiles": "NCc1cnn(-c2ccccc2C(=O)NCc2ccncc2)c1", "A": 33.93, "B": 18.92, "C": 2.114, "D": -2.434, "E": -0.5405}